According to PubChem BioAssay AID588497 (NMMLSC, 2011):
In all, about 360,000 compounds went through this assay and about 780 (0.22%) were called active. The shares of active, inactive and inconclusive entries below differ from those in the screen. Rule as the data show it: active = inhibition above about 35% (passing the limit was not always enough); inconclusive = no clear call, values can overlap the other calls.

What follows are molecules tested on Botulinum neurotoxin type F light chain protease (Clostridium botulinum) (assay: BoNT/F light chain protease inhibitors, primary screen, biochemical, flow cytometry, MLPCN library (AID 588497; also: plate controls were buffer without enzyme for full effect and enzyme alone for no effect)). Conditions: Multiplex microsphere protease cleavage assay, at 10 µM, hits give high values.

SMILES	inhibition
C=C(C)Cn1cnc2c(oc3nc4c(cc32)CCCC4)c1=O	inconclusive: -163%
C=CCNC(=S)NNC(=O)c1cccc2ccccc12	inactive: -1.4%
CC(Nc1nc(=S)nc(Nc2ccc(F)cc2)[nH]1)c1ccccc1 (centres undefined)	inconclusive: -8.1%
COc1ccccc1NC(=O)c1ccc2c(c1)CCN2S(C)(=O)=O	inconclusive: -1.5%
Cc1ccc2c(C)c(C(=O)Nc3cccnc3)oc2c1C	inconclusive: 5.7%
O=C(NCCCn1ccnc1)c1ccc(Cl)cc1	inconclusive: -15.8%
CCCCn1c(O)c(C(=O)/C=C/c2c[nH]c3ccccc23)c(=O)[nH]c1=O	inconclusive: 74.3%
CCCCC/C(=N/O)c1c(C)[nH]c2ccccc12	inconclusive: -0.8%
Cc1ccc(S(=O)(=O)N2CCN(c3ccc([N+](=O)[O-])cn3)CC2)cc1	inconclusive: 12.5%
CC(C)(C)c1cc(C(F)(F)F)c(C#N)c(=O)[nH]1	inconclusive: 1.6%
CN1C(=O)C(CC(=O)NCCc2ccccc2)N(NC(=O)c2ccc(Cl)cc2)C1=S (centres undefined)	inconclusive: 8.3%
COCCN(C(C)=O)c1nnc(-c2cnccn2)s1	inconclusive: 20.8%
C/C(=N\NC(=O)c1ccc(F)cc1)c1ccccn1	inconclusive: -1.4%
CC(CC(=O)Nc1ccc2c(c1)OCO2)c1ccccc1 (centres undefined)	inconclusive: 9.9%
CC(=O)NCC(=O)NNC1CC(=O)N(c2cccc(Cl)c2)C1=O (centres undefined)	inconclusive: 3.7%
COC(=O)n1c(SC)nc2ccccc21	inconclusive: -74.5%
O=C(Nc1nccs1)c1nc(-c2ccccc2)n(-c2ccccc2)n1	inactive: 13.3%
Clc1ccc(CN2CCN(c3ncccn3)CC2)cc1	inconclusive: -33.2%
Cc1cc(C(=O)O)c(C)n1Cc1ccncc1	inconclusive: -75.2%
CCC1S/C(=N/N=C/c2ccco2)N(Cc2ccccc2C)C1=O (centres undefined)	inconclusive: 8%
COc1cccc(NC(=O)Cc2nnc(SCC(=O)NC3CCCCC3)n2C)c1	inactive: 13.3%
Cc1ccc(OCC(=O)Nc2ccccc2F)cc1	inconclusive: 21.2%
CC1CCCC(C)N1C(=S)NCc1ccco1 (centres undefined)	inconclusive: 94.3%
Cc1ccc2nc(C3CCCCC3)[nH]c2c1	inconclusive: -70.8%

Three structures already listed, arranged by molar mass, low to high.
SMILES	inhibition
C=CCNC(=S)NNC(=O)c1cccc2ccccc12	inactive: -1.4%
C=C(C)Cn1cnc2c(oc3nc4c(cc32)CCCC4)c1=O	inconclusive: -163%
CCC1S/C(=N/N=C/c2ccco2)N(Cc2ccccc2C)C1=O (centres undefined)	inconclusive: 8%

(cont.)

SMILES	inhibition
CCOC(=O)c1sc(NC(=O)c2ccc(=O)[nH]c2)nc1C	active: 36.9%
FC(F)(F)c1ccccc1/C=N/n1c(COc2ccccc2)n[nH]c1=S	inconclusive: -19.3%
Cc1onc(-c2c(Cl)cccc2Cl)c1-c1nnc(-c2ccc(Cl)cc2)o1	inconclusive: 14.6%
CN=C(C)/C(C(=O)OC)=C(/O)c1ccccc1F	inconclusive: -26.9%
COc1ccccc1C(=O)NCc1ccc(-c2nc3ccccc3s2)cc1	inactive: -2.9%
COc1ccc(Cl)cc1C(=O)CSc1nnnn1C1CCCC1	inactive: -3.3%
CC1CCC2(CC1)NC(=O)N(CC(=O)NCc1ccc(Cl)cc1)C2=O (centres undefined)	inactive: -3.1%
CC(C)OC(=O)CC1C(=O)NCCN1C(=S)NC(=O)c1ccccc1 (centres undefined)	active: 35.3%
CCCc1nc2oc3cc(OC)ccc3c(=O)c2c(=O)n1CCc1ccccc1	inconclusive: -43.1%
CN1CCN(CC(=O)Nc2c(C(=O)C3CC3)oc3ccccc23)CC1	inactive: -0.1%
O=C(Nc1ccc2ccccc2c1)c1cc(F)c(F)cc1Cl	inconclusive: 10.4%
O=C(O)c1nc(N2CCCCC2)ncc1Cl	inactive: -9%
O=C(c1ccco1)N1CCN(Cc2nc3ccccc3[nH]2)CC1	inactive: -4%
COc1ccccc1C(=O)N/N=C/c1c[nH]c2ccccc12	inconclusive: -3.5%
CC(C)CN(Cc1cc(=O)oc2cc3c(cc12)CCCC3)CC(C)C	inconclusive: -65%
COc1ccc(-c2cc(C(F)(F)F)n3nc(C(=O)NCc4ccco4)c(Cl)c3n2)cc1	inactive: -7.2%
CN1CCN(c2ccc([N+](=O)[O-])c(Sc3ccccn3)c2)CC1	inconclusive: 67.6%
O=C1/C(=C/c2cccc(Cl)c2)CSc2sccc21	inconclusive: -15.2%
CC(C)(C)C(=O)Nc1ccc(/C=C/C(=O)c2ccco2)cc1	inconclusive: -48.7%
COc1ccccc1Cn1c(=S)[nH]c2cc(C(=O)NCCCN3CCOCC3)ccc2c1=O	inactive: 10%
CC(C)N(C(=O)Nc1ccc2nccnc2c1)C(C)C	inconclusive: -19.9%
CCOC(=O)CCCCC(=O)c1[nH]c(=O)[nH]c1CSc1nc(-c2ccccc2)c(C#N)c(=O)[nH]1	inactive: 15.2%
Cc1cccn2c(=O)nc(SCC(=O)NCc3ccccc3)nc12	inconclusive: -2.6%
CC(C)(C)Cc1nnc(NC(=O)CCc2ccccc2)s1	inconclusive: -33.5%

SMILES	inhibition
CCCCCCNC(=O)c1cn(CC)c2cc(N3CCN(C)CC3)c(F)cc2c1=O	inactive: 22.8%
CCc1ccc(NC(=O)CSc2nccn(-c3ccc4c(c3)OCCO4)c2=O)cc1	inconclusive: 55.4%
CNc1ccc(-c2cccc(C(=O)N3CCOCC3)c2)cn1	inactive: -1.8%
Cc1ccc(C)c(C(=O)CSc2nnnn2-c2cccnc2)c1	inconclusive: -24.4%
O=C(O)c1ccccc1C(=O)NC1Cc2ccccc2C1	inconclusive: 62.2%
Nn1c(SCC(=O)N2CCOCC2)nnc1C1CC1	inactive: 0.2%
CCOC(=O)/C(C#N)=C/C=C1/C=CC=CN1C	active: 38.5%
COC(=O)/C(C#N)=C/c1ccc(N2CCOCC2)c([N+](=O)[O-])c1	inconclusive: -18.8%
O=C(N/N=C/c1ccccn1)c1cccc(NC(=O)c2ccccc2Cl)c1	inconclusive: -11.4%
C=CCNC(=O)c1cc2c(=O)n3ccccc3nc2s1	inactive: 6.7%
COc1ccc(-c2cn(CCO)nc2-c2ccc(OC)cc2)cc1	inactive: -8.1%
O=S(=O)(c1ccccc1)n1cc(-c2cccc3nccn23)c2ccccc21	inactive: 1%
Cc1cc(NC(=O)CN2C(=O)NC3(CCCCCC3)C2=O)ccc1Br	inconclusive: -9.3%
Oc1[nH]c(=S)sc1C=C1N=c2ccccc2=N1	inconclusive: -65.8%
COc1ccc(-n2c(/C=C/c3ccc(O)c(O)c3)nc3ccccc3c2=O)cc1	inconclusive: -25.7%
CN(C)CCCN(C(=O)c1ccc(S(=O)(=O)N2CCc3ccccc3C2)cc1)c1nc2c(F)cc(F)cc2s1	inconclusive: 10.1%
O=C(NCCN1CCc2ccccc2C1)Nc1ccc([N+](=O)[O-])cc1	inactive: -4.4%
COc1ccc(CCNC(=O)c2cc(CC(C)C)on2)cc1OC	inactive: -1.8%
Nc1ncc([N+](=O)[O-])cc1S(=O)(=O)c1ccccc1	inconclusive: -17.8%
Cc1cc(C)n2nc(-c3cccc(Br)c3)cc2n1	inconclusive: 21.1%
CC(C)C1Oc2ccccc2N(CC(=O)NCCCN2C(C)CCCC2C)C1=O (centres undefined)	inactive: 2.4%
COc1cccc(/C=C2/C(=O)NN(c3ccc(C)c(C)c3)C2=O)c1	inconclusive: 42.2%
CCn1c(=O)cc(SCC(=O)N2CCC(C)CC2)c2ccccc21	inactive: 3.5%
CCOc1cc(Br)cc(/C=C2\SC(=Nc3ccccc3)NC2=O)c1O	inconclusive: -14.7%

Exported in CSV form: 6 of the compounds above
SMILES,inhibition
O=C(O)c1ccccc1C(=O)NC1Cc2ccccc2C1,inconclusive: 62.2%
Nn1c(SCC(=O)N2CCOCC2)nnc1C1CC1,inactive: 0.2%
CCOC(=O)/C(C#N)=C/C=C1/C=CC=CN1C,active: 38.5%
COC(=O)/C(C#N)=C/c1ccc(N2CCOCC2)c([N+](=O)[O-])c1,inconclusive: -18.8%
O=C(N/N=C/c1ccccn1)c1cccc(NC(=O)c2ccccc2Cl)c1,inconclusive: -11.4%
C=CCNC(=O)c1cc2c(=O)n3ccccc3nc2s1,inactive: 6.7%

More records:

SMILES	inhibition
O=C(Nc1ccc(Cl)cc1)Nc1ccc(C(=O)N2CCOCC2)cc1	inconclusive: -55.6%
Cc1ccc(C)c(S(=O)(=O)N2CCCC2CNC(=O)C(=O)NCCN2CCOCC2)c1 (centres undefined)	inconclusive: -1.9%
CC(=O)N1CCN(C(=O)CCNC(=O)c2ccc(Br)cc2)CC1	inconclusive: -368%
CCOc1ccccc1N1CCN(C(=O)NC2CCCCC2)CC1	inconclusive: 10.2%
Cc1cc(C(=O)N2CCN(c3ncccc3C#N)CC2)no1	inconclusive: -9.3%
CCSc1ncnc2c1sc1nc3c(cc12)COC(C)(C)C3	active: 36.2%
Cc1n[nH]c(C)c1S(=O)(=O)N1CCCC(C(=O)N2CCc3ccccc32)C1 (centres undefined)	inconclusive: -4.1%
CCOC(=O)c1ccc(Oc2cc(C)nc(Cl)n2)cc1	inconclusive: 156%
Cc1nn(Cc2ccccc2)c(C)c1/C=N/NC(=O)c1ccncc1	inconclusive: -7.9%
CCNC(=O)C1(C)CCN(C(=O)c2cccc(C#N)c2)C1 (centres undefined)	inactive: -7.4%
CC(=O)Nc1ccc(SC[C@H](Cc2ccccc2)N2CC[C@@H](C(C)(C)C)CCC2=O)cc1	inactive: -8.4%
COc1ccccc1NC(C)=O	inconclusive: -49.8%
O=[N+]([O-])c1ccccc1S(=O)(=O)Nc1ccc(-c2ccc(N3CCOCC3)nn2)cc1	inactive: -2.6%
COc1ccccc1-c1cc(C(=O)N/N=C/c2sccc2C)c2ccccc2n1	inconclusive: 45.4%
Cc1noc(-c2ccccc2)c1NC(=O)Nc1ccccc1	inconclusive: -87.1%
COc1ccc(N=NC2=C(O)CC(C)(C)CC2=O)c(OC)c1	inactive: -0.4%
CCn1nc(C)c(/C=C/C(=O)Nc2ccc(C)cc2C)c1C	active: 38.8%
CC(C)C(=O)Nc1ccc2c(c1)nc(CCN1CCN(C)CC1)n2C	inactive: -4.7%
COC(=O)C(NC(=O)C(C)NC(=O)OCc1ccccc1)C(C)C (centres undefined)	inconclusive: -21.3%
COc1ccc(C(=O)Nn2c(CC(C)C)nc3cc(OC)c(OC)cc3c2=O)c(OC)c1	inconclusive: 5.3%
Cc1cc(Cl)ccc1NC(=S)NCC(O)c1ccccc1 (centres undefined)	inconclusive: -15.4%
Nc1ccc(-c2c3ccccc3nc3ccccc23)cc1	inconclusive: -12.2%
